Assay results: article PMC10904395, “The Deinococcus protease PprI senses DNA damage by directly interacting with single-stranded DNA”
Residue numbers refer to the chain shown, from its start. A weaker result is weaker than the reference pair of the same experiment. Protein sequences can lack the tags named with them.

What was measured:
Assay in all cases: EMSA
[1] = biological target: T1, DG-PprI patch 3 mutant R220A,R250A,S251A (Deinococcus geothermalis) (UniProt Q1J1D6); conditions: described as defective; EMSA: 150 mM NaCl, 20 mM Tris-HCl pH 8.0, 0.1 mg/ml BSA, 0.1 uM FAM-labeled nucleic acid, 0/1/2 uM protein, room temperature 30 min, 10% native PAGE in 1x TB; recombinant protein; residues 1-289; label: 5' FAM; single-stranded DNA
T1 sequence (looked up): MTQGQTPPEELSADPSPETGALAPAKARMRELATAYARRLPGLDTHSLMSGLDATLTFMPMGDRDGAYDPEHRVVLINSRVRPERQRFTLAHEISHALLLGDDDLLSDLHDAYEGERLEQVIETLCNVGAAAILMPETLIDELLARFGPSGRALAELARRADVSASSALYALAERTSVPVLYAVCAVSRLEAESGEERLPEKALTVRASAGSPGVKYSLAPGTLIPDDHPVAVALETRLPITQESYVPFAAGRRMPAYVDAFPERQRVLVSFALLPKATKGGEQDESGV

[2] = biological target: T2, DG-PprI R85A/R207A (Deinococcus geothermalis) (UniProt Q1J1D6); conditions: smeared shifted bands; EMSA: 150 mM NaCl, 20 mM Tris-HCl pH 8.0, 0.1 mg/ml BSA, 0.1 uM FAM-labeled nucleic acid, 0/1/2 uM protein, room temperature 30 min, 10% native PAGE in 1x TB; recombinant protein; residues 1-289; label: 5' FAM; single-stranded DNA
T2 sequence (looked up): T1 sequence (looked up) with R85A, R207A, A220R, A250R, A251S

[3] = biological target: T3, DG-PprI R207A/R267A (Deinococcus geothermalis) (UniProt Q1J1D6); conditions: smeared shifted bands; EMSA: 150 mM NaCl, 20 mM Tris-HCl pH 8.0, 0.1 mg/ml BSA, 0.1 uM FAM-labeled nucleic acid, 0/1/2 uM protein, room temperature 30 min, 10% native PAGE in 1x TB; recombinant protein; residues 1-289; label: 5' FAM; single-stranded DNA
T3 sequence (looked up): T1 sequence (looked up) with R207A, A220R, A250R, A251S, R267A

[4] = biological target: T4, DG-PprI patch 2 mutant L22A,K26A,R117A (Deinococcus geothermalis) (UniProt Q1J1D6); conditions: smeared shifted bands; EMSA: 150 mM NaCl, 20 mM Tris-HCl pH 8.0, 0.1 mg/ml BSA, 0.1 uM FAM-labeled nucleic acid, 0/1/2 uM protein, room temperature 30 min, 10% native PAGE in 1x TB; recombinant protein; residues 1-289; label: 5' FAM; single-stranded DNA
T4 sequence (looked up): T1 sequence (looked up) with L22A, K26A, R117A, A220R, A250R, A251S

Measured: binding result

CGCTCTTCGCCATTCTCTTGAAGTTTCAAACTTGG [35nt ssDNA]
binds more weakly: all assays above
